Results reported in the supplement of paper PMC10032668.
The list shows a part of the results. The list holds hits alone, and they repeat only in part.

The chains behind the UniProt entries cited, without tags or fusion partners.
GRWD1, Q9BQ67, UniProt Q9BQ67, whole entry: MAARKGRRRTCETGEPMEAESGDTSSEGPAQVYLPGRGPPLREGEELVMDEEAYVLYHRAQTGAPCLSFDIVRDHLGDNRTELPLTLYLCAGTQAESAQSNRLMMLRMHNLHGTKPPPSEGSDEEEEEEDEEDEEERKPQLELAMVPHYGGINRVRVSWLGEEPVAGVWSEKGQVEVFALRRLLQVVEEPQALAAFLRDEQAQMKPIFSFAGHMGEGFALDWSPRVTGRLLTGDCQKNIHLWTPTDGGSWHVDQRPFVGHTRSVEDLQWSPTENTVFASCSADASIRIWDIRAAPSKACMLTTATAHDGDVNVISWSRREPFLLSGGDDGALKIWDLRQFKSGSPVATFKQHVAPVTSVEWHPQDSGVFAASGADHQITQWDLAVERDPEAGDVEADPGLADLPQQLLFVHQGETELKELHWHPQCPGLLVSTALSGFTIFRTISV
KPNA1, P52294, UniProt P52294, whole entry: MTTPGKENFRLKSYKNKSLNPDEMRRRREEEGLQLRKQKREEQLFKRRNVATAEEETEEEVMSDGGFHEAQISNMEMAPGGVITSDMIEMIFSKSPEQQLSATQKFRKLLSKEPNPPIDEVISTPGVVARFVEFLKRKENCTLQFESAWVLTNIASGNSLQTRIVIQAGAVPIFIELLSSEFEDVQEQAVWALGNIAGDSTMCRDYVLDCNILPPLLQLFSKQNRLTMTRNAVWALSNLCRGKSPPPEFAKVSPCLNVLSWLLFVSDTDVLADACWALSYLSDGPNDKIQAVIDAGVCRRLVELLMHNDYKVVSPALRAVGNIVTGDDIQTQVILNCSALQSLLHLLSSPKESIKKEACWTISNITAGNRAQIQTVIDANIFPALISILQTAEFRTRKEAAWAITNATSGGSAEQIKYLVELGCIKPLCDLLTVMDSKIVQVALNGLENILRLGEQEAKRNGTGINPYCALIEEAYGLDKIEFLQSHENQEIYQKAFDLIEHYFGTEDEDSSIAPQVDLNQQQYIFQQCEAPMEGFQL
MTHFD1L, Q6UB35, UniProt Q6UB35, whole entry: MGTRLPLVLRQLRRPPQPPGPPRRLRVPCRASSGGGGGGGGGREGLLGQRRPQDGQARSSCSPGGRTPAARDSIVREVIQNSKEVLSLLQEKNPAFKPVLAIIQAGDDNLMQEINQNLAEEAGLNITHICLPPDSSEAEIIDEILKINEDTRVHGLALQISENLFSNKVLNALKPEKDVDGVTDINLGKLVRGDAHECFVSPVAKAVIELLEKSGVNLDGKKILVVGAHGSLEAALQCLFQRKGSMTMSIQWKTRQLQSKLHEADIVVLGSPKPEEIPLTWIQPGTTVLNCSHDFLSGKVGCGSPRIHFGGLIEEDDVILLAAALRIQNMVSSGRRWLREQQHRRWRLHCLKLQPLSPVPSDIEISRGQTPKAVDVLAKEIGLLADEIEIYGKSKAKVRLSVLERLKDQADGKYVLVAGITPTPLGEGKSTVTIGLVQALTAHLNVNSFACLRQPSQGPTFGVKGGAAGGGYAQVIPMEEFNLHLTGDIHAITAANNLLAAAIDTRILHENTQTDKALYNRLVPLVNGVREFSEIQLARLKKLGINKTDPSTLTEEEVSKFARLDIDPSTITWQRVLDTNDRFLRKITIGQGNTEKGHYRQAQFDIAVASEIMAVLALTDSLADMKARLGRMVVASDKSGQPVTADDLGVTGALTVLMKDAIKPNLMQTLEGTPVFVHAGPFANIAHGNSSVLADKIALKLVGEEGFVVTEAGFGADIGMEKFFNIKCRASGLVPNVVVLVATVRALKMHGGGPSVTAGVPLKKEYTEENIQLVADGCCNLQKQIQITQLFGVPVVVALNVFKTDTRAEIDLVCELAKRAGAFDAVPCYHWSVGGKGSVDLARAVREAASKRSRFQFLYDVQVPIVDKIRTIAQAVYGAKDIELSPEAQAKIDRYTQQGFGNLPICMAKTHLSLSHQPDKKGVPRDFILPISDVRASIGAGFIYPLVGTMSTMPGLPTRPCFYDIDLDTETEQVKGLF
NASP, P49321, UniProt P49321, whole entry: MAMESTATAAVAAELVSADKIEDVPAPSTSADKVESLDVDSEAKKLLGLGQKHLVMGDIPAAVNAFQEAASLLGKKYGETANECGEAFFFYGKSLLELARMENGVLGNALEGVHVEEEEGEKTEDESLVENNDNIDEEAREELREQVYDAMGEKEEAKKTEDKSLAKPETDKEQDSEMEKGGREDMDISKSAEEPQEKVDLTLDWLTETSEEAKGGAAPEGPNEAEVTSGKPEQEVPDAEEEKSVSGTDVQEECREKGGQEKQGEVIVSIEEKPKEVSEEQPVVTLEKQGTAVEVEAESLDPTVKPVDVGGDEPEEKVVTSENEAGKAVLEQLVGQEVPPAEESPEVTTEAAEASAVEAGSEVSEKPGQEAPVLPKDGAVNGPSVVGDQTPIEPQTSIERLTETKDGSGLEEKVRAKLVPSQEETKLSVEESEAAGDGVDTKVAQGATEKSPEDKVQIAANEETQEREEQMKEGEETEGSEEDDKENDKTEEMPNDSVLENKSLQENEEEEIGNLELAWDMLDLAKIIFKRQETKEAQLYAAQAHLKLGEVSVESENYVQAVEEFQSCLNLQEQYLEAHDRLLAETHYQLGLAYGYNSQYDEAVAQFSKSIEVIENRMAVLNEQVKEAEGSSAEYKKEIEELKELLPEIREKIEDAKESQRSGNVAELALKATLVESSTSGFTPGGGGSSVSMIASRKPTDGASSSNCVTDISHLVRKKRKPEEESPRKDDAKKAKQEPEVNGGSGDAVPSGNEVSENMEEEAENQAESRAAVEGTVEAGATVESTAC
EIF3K, Q9UBQ5, UniProt Q9UBQ5, whole entry: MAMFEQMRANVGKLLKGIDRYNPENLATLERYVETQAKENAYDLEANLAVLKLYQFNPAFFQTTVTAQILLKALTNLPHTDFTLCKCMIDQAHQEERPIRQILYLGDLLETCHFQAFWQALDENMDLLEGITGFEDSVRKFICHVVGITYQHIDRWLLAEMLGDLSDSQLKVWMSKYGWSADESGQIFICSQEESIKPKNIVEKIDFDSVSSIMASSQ
ELOC, Q15369, UniProt Q15369, whole entry: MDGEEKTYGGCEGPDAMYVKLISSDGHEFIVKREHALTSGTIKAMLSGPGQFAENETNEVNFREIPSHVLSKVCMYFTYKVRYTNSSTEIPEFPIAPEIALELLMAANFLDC

Legend:
Experiment in all cases: PRISMA enrichment of interactor (LFQ) in peptide spot vs all other peptide spots (log2 fold change); higher = stronger / more specific binding of the interactor to the peptide
APOB, P04114 = biological target: APOB, P04114
Method: (§1)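 PRISMA: 15-aa overlapping tiles (offset 8 aa) of 60 microproteins, plus SOS1/GLUT1 control peptides, were spot-synthesized on cellulose membranes in triplicate. Membranes were incubated with benzonase-treated HEK293T lysate, and bound proteins were identified by LC-MS/MS with LFQ. Enrichment is the log2 fold change of each protein in one spot versus all other spots. Only interactors passing the significance cutoff are listed.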

ARMC6, Q6NXE6 = biological target: ARMC6, Q6NXE6
Method: as §1

CCT2, P78371 = biological target: CCT2, P78371
Method: as §1

EIF2B3, Q9NR50 = biological target: EIF2B3, Q9NR50
Method: as §1

GALK1, P51570 = biological target: GALK1, P51570
Method: as §1

GAPVD1, Q14C86 = biological target: GAPVD1, Q14C86
Method: as §1

GHITM, Q9H3K2 = biological target: GHITM, Q9H3K2
Method: as §1

GRWD1, Q9BQ67 = biological target: GRWD1, Q9BQ67
Method: as §1

HNRNPH2, P55795 = biological target: HNRNPH2, P55795
Method: as §1

KPNA1, P52294 = biological target: KPNA1, P52294
Method: as §1

MCM4, P33991 = biological target: MCM4, P33991
Method: as §1

MEPCE, Q7L2J0 = biological target: MEPCE, Q7L2J0
Method: as §1

MRPL14, Q6P1L8 = biological target: MRPL14, Q6P1L8
Method: as §1

MRPL22, Q9NWU5 = biological target: MRPL22, Q9NWU5
Method: as §1

MRPL34, Q9BQ48 = biological target: MRPL34, Q9BQ48
Method: as §1

MTHFD1L, Q6UB35 = biological target: MTHFD1L, Q6UB35
Method: as §1

NASP, P49321 = biological target: NASP, P49321
Method: as §1

PCYT1A, P49585 = biological target: PCYT1A, P49585
Method: as §1

POLR2B, P30876 = biological target: POLR2B, P30876
Method: as §1

PTCD3, Q96EY7 = biological target: PTCD3, Q96EY7
Method: as §1

RBM15, Q96T37 = biological target: RBM15, Q96T37
Method: as §1

SERF2, P84101 = biological target: SERF2, P84101
Method: as §1

SLC25A24, Q6NUK1 = biological target: SLC25A24, Q6NUK1
Method: as §1

SRSF7, Q16629 = biological target: SRSF7, Q16629
Method: as §1

TNPO3, Q9Y5L0 = biological target: TNPO3, Q9Y5L0
Method: as §1

TOMM5, Q8N4H5 = biological target: TOMM5, Q8N4H5
Method: as §1

UTP14A, Q9BVJ6 = biological target: UTP14A, Q9BVJ6
Method: as §1

ARF1, P84077 = biological target: ARF1, P84077
Method: as §1

CHMP1A, Q9HD42 = biological target: CHMP1A, Q9HD42
Method: as §1

DHCR24, Q15392 = biological target: DHCR24, Q15392
Method: as §1

EIF3K, Q9UBQ5 = biological target: EIF3K, Q9UBQ5
Method: as §1

ELOC, Q15369 = biological target: ELOC, Q15369
Method: as §1

FAM91A1, Q658Y4 = biological target: FAM91A1, Q658Y4
Method: as §1

FAM98B, Q52LJ0 = biological target: FAM98B, Q52LJ0
Method: as §1

GTF2H5, Q6ZYL4 = biological target: GTF2H5, Q6ZYL4
Method: as §1

NOL12, Q9UGY1 = biological target: NOL12, Q9UGY1
Method: as §1

PDCD11, Q14690 = biological target: PDCD11, Q14690
Method: as §1

PGRMC1, O00264 = biological target: PGRMC1, O00264
Method: as §1

AQR, O60306 = biological target: AQR, O60306
Method: as §1

ARGLU1, Q9NWB6 = biological target: ARGLU1, Q9NWB6
Method: as §1

CSNK2A1, P68400 = biological target: CSNK2A1, P68400
Method: as §1

HDGFL2, Q7Z4V5 = biological target: HDGFL2, Q7Z4V5
Method: as §1

KIF2A, O00139 = biological target: KIF2A, O00139
Method: as §1

NCAPG2, Q86XI2 = biological target: NCAPG2, Q86XI2
Method: as §1

NCOA5, Q9HCD5 = biological target: NCOA5, Q9HCD5
Method: as §1

NOC4L, Q9BVI4 = biological target: NOC4L, Q9BVI4
Method: as §1

NOL9, Q5SY16 = biological target: NOL9, Q5SY16
Method: as §1

POLR2A, P24928 = biological target: POLR2A, P24928
Method: as §1

PRPS2, P11908 = biological target: PRPS2, P11908
Method: as §1

RBM17, Q96I25 = biological target: RBM17, Q96I25
Method: as §1

RCN2, Q14257 = biological target: RCN2, Q14257
Method: as §1

hCG_2014768 = biological target: hCG_2014768
Method: as §1

B1: PDZRN3-AS1 (peptide)
chain: MLTAEVRTGRRLITP
- PRISMA enrichment of interactor (log2) (APOB, P04114): 10.6
- PRISMA enrichment of interactor (log2) (ARMC6, Q6NXE6): 5.32
- PRISMA enrichment of interactor (log2) (CCT2, P78371): 6.33
- PRISMA enrichment of interactor (log2) (EIF2B3, Q9NR50): 4.39
- PRISMA enrichment of interactor (log2) (GALK1, P51570): 8.68
- PRISMA enrichment of interactor (log2) (GAPVD1, Q14C86): 5.3
- PRISMA enrichment of interactor (log2) (GHITM, Q9H3K2): 6.47
- PRISMA enrichment of interactor (log2) (GRWD1, Q9BQ67): 5.34
- PRISMA enrichment of interactor (log2) (HNRNPH2, P55795): 8.69
- PRISMA enrichment of interactor (log2) (KPNA1, P52294): 6.63
- PRISMA enrichment of interactor (log2) (MCM4, P33991): 5.31
- PRISMA enrichment of interactor (log2) (MEPCE, Q7L2J0): 7.23
- PRISMA enrichment of interactor (log2) (MRPL14, Q6P1L8): 4.56
- PRISMA enrichment of interactor (log2) (MRPL22, Q9NWU5): 4.72
- PRISMA enrichment of interactor (log2) (MRPL34, Q9BQ48): 5.09
- PRISMA enrichment of interactor (log2) (MTHFD1L, Q6UB35): 9.46
- PRISMA enrichment of interactor (log2) (NASP, P49321): 5.03
- PRISMA enrichment of interactor (log2) (PCYT1A, P49585): 4.61
- PRISMA enrichment of interactor (log2) (POLR2B, P30876): 6.34
- PRISMA enrichment of interactor (log2) (PTCD3, Q96EY7): 4.85
- PRISMA enrichment of interactor (log2) (RBM15, Q96T37): 4.31
- PRISMA enrichment of interactor (log2) (SERF2, P84101): 4.69
- PRISMA enrichment of interactor (log2) (SLC25A24, Q6NUK1): 7.61
- PRISMA enrichment of interactor (log2) (SRSF7, Q16629): 5.52
- PRISMA enrichment of interactor (log2) (TNPO3, Q9Y5L0): 5.08
- PRISMA enrichment of interactor (log2) (TOMM5, Q8N4H5): 5.08
- PRISMA enrichment of interactor (log2) (UTP14A, Q9BVJ6): 4.74

B2: GLUT1_WT_2 (peptide)
chain: TPEELFHPLGADSQ
- PRISMA enrichment of interactor (log2) (ARF1, P84077): 5.15
- PRISMA enrichment of interactor (log2) (CHMP1A, Q9HD42): 5.47
- PRISMA enrichment of interactor (log2) (DHCR24, Q15392): 5.44
- PRISMA enrichment of interactor (log2) (EIF3K, Q9UBQ5): 4.93
- PRISMA enrichment of interactor (log2) (ELOC, Q15369): 4
- PRISMA enrichment of interactor (log2) (FAM91A1, Q658Y4): 4.88
- PRISMA enrichment of interactor (log2) (FAM98B, Q52LJ0): 8.26
- PRISMA enrichment of interactor (log2) (GTF2H5, Q6ZYL4): 4.03
- PRISMA enrichment of interactor (log2) (NOL12, Q9UGY1): 4.91
- PRISMA enrichment of interactor (log2) (PDCD11, Q14690): 6.57
- PRISMA enrichment of interactor (log2) (PGRMC1, O00264): 5.68

B3: LINC01560 (peptide)
chain: LLQERGKAAEFYSRG
- PRISMA enrichment of interactor (log2) (AQR, O60306): 4.33
- PRISMA enrichment of interactor (log2) (ARGLU1, Q9NWB6): 5.16
- PRISMA enrichment of interactor (log2) (CSNK2A1, P68400): 5.41
- PRISMA enrichment of interactor (log2) (EIF3K, Q9UBQ5): 4.49
- PRISMA enrichment of interactor (log2) (HDGFL2, Q7Z4V5): 5.18
- PRISMA enrichment of interactor (log2) (KIF2A, O00139): 6.25
- PRISMA enrichment of interactor (log2) (NCAPG2, Q86XI2): 4.92
- PRISMA enrichment of interactor (log2) (NCOA5, Q9HCD5): 6.75
- PRISMA enrichment of interactor (log2) (NOC4L, Q9BVI4): 4.31
- PRISMA enrichment of interactor (log2) (NOL9, Q5SY16): 4.27
- PRISMA enrichment of interactor (log2) (POLR2A, P24928): 6.02
- PRISMA enrichment of interactor (log2) (PRPS2, P11908): 4.27
- PRISMA enrichment of interactor (log2) (RBM17, Q96I25): 6.43
- PRISMA enrichment of interactor (log2) (RCN2, Q14257): 4.98
- PRISMA enrichment of interactor (log2) (hCG_2014768): 7.08
